According to article PMC6156764:
No constants are given. Whether binding was seen depends on the method and setting. In cells and extracts the contact can be indirect. Some binding calls cover weakened binding; strength is not graded here. Where a sequence is shown, tags or fusion partners need not be part of it.

By UniProt entry, the sequences of proteins in these tests, tags left out.
UniProt Q15562: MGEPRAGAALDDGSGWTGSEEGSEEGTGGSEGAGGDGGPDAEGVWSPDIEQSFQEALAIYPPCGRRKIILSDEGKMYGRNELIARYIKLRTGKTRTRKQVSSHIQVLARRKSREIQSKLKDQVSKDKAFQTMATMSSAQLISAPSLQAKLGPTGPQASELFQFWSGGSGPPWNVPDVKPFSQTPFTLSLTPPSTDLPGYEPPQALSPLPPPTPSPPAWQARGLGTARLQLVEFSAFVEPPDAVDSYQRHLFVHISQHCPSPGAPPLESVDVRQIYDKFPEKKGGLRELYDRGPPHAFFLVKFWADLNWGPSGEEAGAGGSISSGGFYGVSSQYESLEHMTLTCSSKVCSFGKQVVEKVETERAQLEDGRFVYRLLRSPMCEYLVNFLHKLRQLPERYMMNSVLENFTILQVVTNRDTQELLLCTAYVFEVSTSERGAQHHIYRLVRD

Target: T1, Flag-tagged human guanylate-binding protein 1 (GBP-1), full length (human) (UniProt P32455)
T1 sequence: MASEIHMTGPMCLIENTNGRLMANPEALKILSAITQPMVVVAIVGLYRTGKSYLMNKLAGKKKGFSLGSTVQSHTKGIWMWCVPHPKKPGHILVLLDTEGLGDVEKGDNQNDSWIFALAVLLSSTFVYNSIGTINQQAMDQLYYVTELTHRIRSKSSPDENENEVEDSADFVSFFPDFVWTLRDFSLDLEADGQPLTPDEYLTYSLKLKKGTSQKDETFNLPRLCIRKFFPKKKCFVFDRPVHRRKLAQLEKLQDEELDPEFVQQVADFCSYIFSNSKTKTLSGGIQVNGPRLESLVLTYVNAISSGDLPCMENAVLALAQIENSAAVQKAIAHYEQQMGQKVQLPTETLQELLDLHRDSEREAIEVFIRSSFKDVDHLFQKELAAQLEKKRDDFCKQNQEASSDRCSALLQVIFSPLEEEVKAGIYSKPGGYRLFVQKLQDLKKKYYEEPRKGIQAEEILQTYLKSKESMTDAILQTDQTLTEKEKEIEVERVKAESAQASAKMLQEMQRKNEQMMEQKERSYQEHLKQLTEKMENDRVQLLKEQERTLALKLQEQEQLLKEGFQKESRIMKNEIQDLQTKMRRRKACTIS
Test: co-IP; Flag M2 antibody affinity gel precipitates the Flag-tagged protein from lysates of transfected DLD1 or HeLa cells; endogenous TEAD detected by western blot (pan-TEAD, TEAD1, TEAD2 or TEAD3 antibody)

With “endogenous TEAD2 (from UniProt Q15562 1-447)” the binding was “binds”.
